Counter-ions that a name gives are not always drawn. Some of the results follow. Hit calls seldom repeat between salt and free forms of one compound.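 Kinases, fused to nanoluciferase, were expressed in K562 cells; luminescence was measured every 4 h from 2 to 18 h as percent of control (DMSO = 100%, positive control = 0%). A time point is decreased if signal falls significantly (2 sigma). Hits were called by the authors by a rule that is not shown; the count of time points alone does not decide it.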
Experiments:
Assay in all cases: kinase-Nluc reporter destabilization hit call (1 = scored as downregulated) (binary); higher = compound decreases kinase abundance
Conditions in all cases: K562; 2-18 h
BRAF_V600E = test system: BRAF_V600E
BTK = BTK (UniProt Q06187)
CAMK2A = CAMK2A (UniProt Q9UQM7)
CAMK2G = CAMK2G (UniProt Q13555)
CDK10 = CDK10 (UniProt Q15131)
CDK2 = CDK2 (UniProt P24941)
CDK3 = CDK3 (UniProt Q00526)
CDK4 = CDK4 (UniProt P11802)
CDK5 = CDK5 (UniProt Q00535)
CDK6 = CDK6 (UniProt Q00534)
CDK7 = CDK7 (UniProt P50613)
CDK9 = CDK9 (UniProt P50750)
CHEK2 = CHEK2 (UniProt O96017)
CSF1R = CSF1R (UniProt P07333)
CSK = CSK (UniProt P41240)
CSNK1A1 = CSNK1A1 (UniProt P48729)
CSNK1D = CSNK1D (UniProt P48730)
DDR1 = DDR1 (UniProt Q08345)
DYRK1B = DYRK1B (UniProt Q9Y463)
DYRK2 = DYRK2 (UniProt Q92630)

Protein sequences, listed by entry. Tags and fused reporters are not part of them. Lines headed by an entry give the natural chain unless they say otherwise; changes in a name come on top.
UniProt Q9UQM7, whole entry: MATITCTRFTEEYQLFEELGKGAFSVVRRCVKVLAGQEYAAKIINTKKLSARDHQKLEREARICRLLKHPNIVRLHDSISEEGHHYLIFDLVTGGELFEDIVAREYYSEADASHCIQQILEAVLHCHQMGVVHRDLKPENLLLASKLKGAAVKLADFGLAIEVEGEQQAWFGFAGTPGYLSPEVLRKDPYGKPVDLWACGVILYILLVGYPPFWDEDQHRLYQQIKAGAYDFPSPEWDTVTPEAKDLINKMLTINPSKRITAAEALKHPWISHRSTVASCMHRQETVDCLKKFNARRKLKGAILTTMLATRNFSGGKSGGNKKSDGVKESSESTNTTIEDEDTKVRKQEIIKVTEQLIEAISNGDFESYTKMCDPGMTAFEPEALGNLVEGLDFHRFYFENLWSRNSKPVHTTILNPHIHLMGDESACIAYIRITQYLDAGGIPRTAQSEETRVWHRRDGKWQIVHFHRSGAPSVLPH
UniProt Q13555: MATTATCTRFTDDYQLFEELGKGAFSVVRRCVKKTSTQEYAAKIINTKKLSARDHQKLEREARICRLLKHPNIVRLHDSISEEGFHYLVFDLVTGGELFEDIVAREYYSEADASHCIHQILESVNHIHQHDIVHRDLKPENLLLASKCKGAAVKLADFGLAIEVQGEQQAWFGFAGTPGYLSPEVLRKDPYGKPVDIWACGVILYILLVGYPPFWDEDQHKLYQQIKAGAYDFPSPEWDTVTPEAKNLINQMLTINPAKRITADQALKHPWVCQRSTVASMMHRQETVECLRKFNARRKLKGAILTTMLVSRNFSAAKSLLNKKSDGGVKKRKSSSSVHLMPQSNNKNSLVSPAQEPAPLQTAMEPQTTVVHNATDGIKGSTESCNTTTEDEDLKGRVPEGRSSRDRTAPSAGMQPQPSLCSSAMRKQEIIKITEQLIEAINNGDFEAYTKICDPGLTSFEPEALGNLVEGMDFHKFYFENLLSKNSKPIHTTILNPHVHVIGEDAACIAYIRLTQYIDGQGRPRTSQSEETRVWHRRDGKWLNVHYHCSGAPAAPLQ
UniProt Q15131: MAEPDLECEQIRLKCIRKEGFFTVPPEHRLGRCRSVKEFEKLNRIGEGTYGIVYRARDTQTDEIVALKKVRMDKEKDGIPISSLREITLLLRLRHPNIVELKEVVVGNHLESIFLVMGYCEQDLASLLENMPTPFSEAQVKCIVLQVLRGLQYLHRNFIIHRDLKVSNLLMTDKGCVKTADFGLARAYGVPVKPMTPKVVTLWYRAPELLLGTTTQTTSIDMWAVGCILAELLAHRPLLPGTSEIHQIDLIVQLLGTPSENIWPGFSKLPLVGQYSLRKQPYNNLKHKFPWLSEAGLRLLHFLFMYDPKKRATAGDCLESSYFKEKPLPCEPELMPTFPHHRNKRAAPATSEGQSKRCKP
UniProt Q00526: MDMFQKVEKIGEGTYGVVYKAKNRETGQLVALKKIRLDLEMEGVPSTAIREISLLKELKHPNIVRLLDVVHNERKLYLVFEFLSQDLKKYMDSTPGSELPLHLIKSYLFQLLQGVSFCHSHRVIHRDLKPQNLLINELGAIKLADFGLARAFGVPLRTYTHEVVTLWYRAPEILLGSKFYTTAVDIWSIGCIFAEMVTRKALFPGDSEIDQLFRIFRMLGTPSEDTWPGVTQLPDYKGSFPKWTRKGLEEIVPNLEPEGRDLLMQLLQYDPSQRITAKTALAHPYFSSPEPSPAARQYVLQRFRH
UniProt P11802: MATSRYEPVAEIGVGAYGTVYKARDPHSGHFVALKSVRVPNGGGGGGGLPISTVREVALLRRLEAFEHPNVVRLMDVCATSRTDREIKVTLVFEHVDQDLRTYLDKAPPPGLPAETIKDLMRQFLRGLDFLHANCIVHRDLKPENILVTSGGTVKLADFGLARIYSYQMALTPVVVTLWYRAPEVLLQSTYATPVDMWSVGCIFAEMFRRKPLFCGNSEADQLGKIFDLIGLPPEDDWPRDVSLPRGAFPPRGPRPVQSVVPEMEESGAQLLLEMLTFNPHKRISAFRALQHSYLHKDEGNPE
UniProt Q00535, whole entry, looked up: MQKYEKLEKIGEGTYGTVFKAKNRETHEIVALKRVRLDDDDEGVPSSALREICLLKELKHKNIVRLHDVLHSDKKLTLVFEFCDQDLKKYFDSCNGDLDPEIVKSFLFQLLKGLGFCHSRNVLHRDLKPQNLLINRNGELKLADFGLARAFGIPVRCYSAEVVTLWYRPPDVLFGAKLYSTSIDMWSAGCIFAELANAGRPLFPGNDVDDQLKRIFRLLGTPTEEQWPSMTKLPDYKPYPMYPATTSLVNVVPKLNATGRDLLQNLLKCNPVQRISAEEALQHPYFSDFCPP
UniProt Q00534, whole entry: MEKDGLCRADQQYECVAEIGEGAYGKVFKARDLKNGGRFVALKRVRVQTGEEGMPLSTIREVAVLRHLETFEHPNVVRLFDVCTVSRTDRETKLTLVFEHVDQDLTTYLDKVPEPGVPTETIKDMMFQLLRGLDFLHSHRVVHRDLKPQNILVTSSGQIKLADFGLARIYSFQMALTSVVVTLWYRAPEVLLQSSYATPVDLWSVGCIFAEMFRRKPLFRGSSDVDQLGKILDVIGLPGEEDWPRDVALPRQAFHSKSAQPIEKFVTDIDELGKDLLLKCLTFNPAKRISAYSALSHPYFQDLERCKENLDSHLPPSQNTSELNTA
UniProt P50613: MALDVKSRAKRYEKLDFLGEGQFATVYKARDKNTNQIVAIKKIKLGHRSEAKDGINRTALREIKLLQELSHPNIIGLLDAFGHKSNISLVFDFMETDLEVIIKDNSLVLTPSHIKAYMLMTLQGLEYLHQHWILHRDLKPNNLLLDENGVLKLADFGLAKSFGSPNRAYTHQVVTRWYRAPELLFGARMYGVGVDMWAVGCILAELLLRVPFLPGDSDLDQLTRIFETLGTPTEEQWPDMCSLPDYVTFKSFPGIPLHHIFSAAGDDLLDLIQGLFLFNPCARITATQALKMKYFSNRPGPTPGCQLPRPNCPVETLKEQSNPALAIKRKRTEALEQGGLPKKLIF
UniProt P50750, whole entry: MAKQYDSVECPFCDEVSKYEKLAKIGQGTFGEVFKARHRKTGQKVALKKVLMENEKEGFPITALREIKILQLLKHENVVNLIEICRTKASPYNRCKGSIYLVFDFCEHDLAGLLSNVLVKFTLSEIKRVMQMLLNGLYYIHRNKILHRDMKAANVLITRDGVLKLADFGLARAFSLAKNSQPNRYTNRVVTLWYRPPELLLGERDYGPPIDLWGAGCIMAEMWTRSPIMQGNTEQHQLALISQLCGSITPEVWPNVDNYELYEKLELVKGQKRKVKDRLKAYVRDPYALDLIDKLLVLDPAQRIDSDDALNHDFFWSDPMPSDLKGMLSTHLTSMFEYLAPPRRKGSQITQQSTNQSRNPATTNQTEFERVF
UniProt O96017, whole entry: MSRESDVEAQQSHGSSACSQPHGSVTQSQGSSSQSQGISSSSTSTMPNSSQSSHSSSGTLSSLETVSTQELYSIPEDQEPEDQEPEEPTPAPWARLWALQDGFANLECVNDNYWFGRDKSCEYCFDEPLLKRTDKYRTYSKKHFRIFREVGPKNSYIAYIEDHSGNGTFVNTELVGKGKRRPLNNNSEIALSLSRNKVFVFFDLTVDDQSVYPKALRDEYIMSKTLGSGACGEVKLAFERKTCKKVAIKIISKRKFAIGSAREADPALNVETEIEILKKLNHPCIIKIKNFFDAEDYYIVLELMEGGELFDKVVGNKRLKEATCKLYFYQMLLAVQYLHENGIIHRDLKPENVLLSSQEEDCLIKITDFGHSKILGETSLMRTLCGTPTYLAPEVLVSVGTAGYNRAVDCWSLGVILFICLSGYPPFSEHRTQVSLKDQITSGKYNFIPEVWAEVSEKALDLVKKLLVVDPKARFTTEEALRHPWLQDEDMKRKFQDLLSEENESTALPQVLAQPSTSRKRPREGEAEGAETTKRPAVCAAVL
UniProt P41240: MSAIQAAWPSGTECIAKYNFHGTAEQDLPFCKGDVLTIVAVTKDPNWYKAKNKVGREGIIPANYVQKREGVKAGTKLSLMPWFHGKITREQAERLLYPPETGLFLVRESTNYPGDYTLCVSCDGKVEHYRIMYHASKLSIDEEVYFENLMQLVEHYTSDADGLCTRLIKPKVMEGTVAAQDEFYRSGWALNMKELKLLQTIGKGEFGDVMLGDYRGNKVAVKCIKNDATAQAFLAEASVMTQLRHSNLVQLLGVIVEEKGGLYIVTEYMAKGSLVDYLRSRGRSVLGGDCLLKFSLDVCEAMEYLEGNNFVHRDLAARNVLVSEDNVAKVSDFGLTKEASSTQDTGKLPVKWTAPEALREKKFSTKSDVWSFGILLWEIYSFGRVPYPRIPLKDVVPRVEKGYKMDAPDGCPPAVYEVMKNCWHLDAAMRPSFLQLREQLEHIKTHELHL
UniProt P48729: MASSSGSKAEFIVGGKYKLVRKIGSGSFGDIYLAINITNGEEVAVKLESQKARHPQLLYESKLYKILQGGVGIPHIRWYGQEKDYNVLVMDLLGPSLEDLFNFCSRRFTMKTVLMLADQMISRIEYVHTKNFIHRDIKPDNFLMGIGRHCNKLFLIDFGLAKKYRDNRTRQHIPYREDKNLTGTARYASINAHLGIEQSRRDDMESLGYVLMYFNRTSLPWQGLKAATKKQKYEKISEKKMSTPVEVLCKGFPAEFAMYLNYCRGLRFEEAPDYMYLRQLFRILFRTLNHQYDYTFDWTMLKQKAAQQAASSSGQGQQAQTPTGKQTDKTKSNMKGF
UniProt P48730: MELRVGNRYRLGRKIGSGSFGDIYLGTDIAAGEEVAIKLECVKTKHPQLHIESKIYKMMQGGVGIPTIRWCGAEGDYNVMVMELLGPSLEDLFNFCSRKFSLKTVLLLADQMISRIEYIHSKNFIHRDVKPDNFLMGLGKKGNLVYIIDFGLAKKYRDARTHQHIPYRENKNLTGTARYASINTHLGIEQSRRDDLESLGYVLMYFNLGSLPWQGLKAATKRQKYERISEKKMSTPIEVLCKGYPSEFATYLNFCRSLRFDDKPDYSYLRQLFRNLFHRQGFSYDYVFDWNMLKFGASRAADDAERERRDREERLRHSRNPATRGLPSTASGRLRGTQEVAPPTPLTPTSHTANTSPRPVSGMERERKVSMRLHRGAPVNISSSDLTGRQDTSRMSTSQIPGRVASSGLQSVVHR
UniProt Q08345: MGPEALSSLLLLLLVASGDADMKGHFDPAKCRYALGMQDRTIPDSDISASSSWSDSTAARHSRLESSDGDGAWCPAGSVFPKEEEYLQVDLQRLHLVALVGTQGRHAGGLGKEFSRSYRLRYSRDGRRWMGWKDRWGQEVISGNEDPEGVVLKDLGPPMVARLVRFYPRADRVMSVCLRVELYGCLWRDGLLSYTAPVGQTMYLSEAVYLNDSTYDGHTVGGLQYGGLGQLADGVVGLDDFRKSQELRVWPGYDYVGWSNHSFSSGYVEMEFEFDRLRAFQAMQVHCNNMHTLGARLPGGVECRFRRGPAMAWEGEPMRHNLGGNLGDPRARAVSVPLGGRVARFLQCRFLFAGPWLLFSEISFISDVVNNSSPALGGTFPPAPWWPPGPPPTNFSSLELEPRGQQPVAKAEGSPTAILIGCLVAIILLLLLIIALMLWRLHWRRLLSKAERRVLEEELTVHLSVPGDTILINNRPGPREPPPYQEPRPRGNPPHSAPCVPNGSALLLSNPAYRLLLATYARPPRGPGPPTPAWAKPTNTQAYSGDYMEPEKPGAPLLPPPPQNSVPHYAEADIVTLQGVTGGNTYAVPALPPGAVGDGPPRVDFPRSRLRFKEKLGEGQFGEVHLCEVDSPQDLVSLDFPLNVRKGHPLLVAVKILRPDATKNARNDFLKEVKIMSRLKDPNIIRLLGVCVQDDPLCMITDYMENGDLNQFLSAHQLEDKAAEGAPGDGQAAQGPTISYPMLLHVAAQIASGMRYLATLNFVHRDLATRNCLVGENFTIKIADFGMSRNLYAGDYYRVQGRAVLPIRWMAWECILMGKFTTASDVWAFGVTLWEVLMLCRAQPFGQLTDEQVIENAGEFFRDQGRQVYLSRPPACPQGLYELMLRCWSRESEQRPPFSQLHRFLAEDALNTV
UniProt Q92630: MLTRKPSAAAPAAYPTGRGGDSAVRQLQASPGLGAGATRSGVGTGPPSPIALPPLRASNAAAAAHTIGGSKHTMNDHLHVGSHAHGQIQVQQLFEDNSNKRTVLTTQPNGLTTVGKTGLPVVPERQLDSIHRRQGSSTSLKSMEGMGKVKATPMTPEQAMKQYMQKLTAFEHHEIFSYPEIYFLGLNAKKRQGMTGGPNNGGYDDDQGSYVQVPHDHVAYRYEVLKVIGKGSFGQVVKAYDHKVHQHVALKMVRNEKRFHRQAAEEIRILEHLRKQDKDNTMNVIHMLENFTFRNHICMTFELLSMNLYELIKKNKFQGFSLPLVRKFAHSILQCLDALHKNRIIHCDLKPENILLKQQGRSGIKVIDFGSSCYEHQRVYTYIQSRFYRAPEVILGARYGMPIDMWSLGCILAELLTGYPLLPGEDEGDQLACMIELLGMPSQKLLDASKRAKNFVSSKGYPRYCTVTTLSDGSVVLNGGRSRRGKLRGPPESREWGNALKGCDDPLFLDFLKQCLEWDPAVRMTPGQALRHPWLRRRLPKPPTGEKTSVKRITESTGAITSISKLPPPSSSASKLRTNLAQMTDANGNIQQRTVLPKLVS

Measured: kinase-Nluc reporter destabilization hit call

COc1ccc(/C=C/c2cc(OC)c(OC)c(OC)c2)cc1 (2.5 µM)
inactive: BRAF_V600E 0 | BTK 0 | CAMK2A 0 | CAMK2G 0 | CDK10 = 0 | CDK2 = 0 | CDK3 = 0 | CDK4 = 0 | CDK5 = 0 | CDK6 = 0 | CDK7 = 0 | CDK9 = 0 | CHEK2 = 0 | CSF1R 0 | CSK 0 | CSNK1A1 = 0 | CSNK1D 0 | DDR1 = 0 | DYRK1B 0 | DYRK2 = 0

CC(C)=CC[C@@H](OC(=O)CC(C)(C)O)C1=CC(=O)c2c(O)ccc(O)c2C1=O [β-Hydroxyisovalerylshikonin] (2.5 µM)
inactive: BRAF_V600E 0 | BTK 0 | CAMK2A 0 | CAMK2G 0 | CDK10 = 0 | CDK2 = 0 | CDK3 = 0 | CDK4 = 0 | CDK5 = 0 | CDK6 = 0 | CDK7 = 0 | CDK9 = 0 | CHEK2 = 0 | CSF1R 0 | CSK 0 | CSNK1A1 = 0 | CSNK1D 0 | DDR1 = 0 | DYRK1B 0 | DYRK2 = 0

CCN1CCN(C(=O)Cc2ccc(Nc3ncc(F)c(Nc4ccc(C(=O)Nc5ccccc5Cl)cc4)n3)cc2)CC1 (2.5 µM)
inactive: BRAF_V600E 0 | BTK 0 | CAMK2A 0 | CAMK2G 0 | CDK10 = 0 | CDK2 = 0 | CDK3 = 0 | CDK4 = 0 | CDK5 = 0 | CDK6 = 0 | CDK7 = 0 | CDK9 = 0 | CHEK2 = 0 | CSF1R 0 | CSK 0 | CSNK1A1 = 0 | CSNK1D 0 | DDR1 = 0 | DYRK1B 0 | DYRK2 = 0

Nc1ncnc2c1ncn2[C@@H]1O[C@@H]2COP(O)(=S)O[C@H]2[C@H]1O (stereo not given in full) [Sp-cAMPS (sodium salt)] (10 µM)
inactive: BRAF_V600E 0 | BTK 0 | CAMK2A 0 | CAMK2G 0 | CDK10 = 0 | CDK2 = 0 | CDK3 = 0 | CDK4 = 0 | CDK5 = 0 | CDK6 = 0 | CDK7 = 0 | CDK9 = 0 | CHEK2 = 0 | CSF1R 0 | CSK 0 | CSNK1A1 = 0 | CSNK1D 0 | DDR1 = 0 | DYRK1B 0 | DYRK2 = 0

CN(C)C(=O)c1ccc(Cn2c(C(=O)O)cc3c(Br)cc(Sc4ccc(Cl)c(Cl)c4)cc32)cc1 [Rheb inhibitor NR1] (10 µM)
inactive: BRAF_V600E 0 | BTK 0 | CAMK2A 0 | CAMK2G 0 | CDK10 = 0 | CDK2 = 0 | CDK3 = 0 | CDK4 = 0 | CDK5 = 0 | CDK6 = 0 | CDK7 = 0 | CDK9 = 0 | CHEK2 = 0 | CSF1R 0 | CSK 0 | CSNK1A1 = 0 | CSNK1D 0 | DDR1 = 0 | DYRK1B 0 | DYRK2 = 0

O=C(/C=C/c1ccccc1)OC[C@H]1O[C@@H](O[C@@H]2OC=C[C@H]3[C@H](O)[C@@H]4O[C@]4(CO)[C@@H]23)[C@H](O)[C@@H](O)[C@@H]1O [Picroside I] (10 µM)
inactive: BRAF_V600E 0 | BTK 0 | CAMK2A 0 | CAMK2G 0 | CDK10 = 0 | CDK2 = 0 | CDK3 = 0 | CDK4 = 0 | CDK5 = 0 | CDK6 = 0 | CDK7 = 0 | CDK9 = 0 | CHEK2 = 0 | CSF1R 0 | CSK 0 | CSNK1A1 = 0 | CSNK1D 0 | DDR1 = 0 | DYRK1B 0 | DYRK2 = 0

CC(C)(C)c1cc(C=C(C#N)C#N)cc(Br)c1O (2.5 µM)
inactive: BRAF_V600E 0 | BTK 0 | CAMK2A 0 | CAMK2G 0 | CDK10 = 0 | CDK2 = 0 | CDK3 = 0 | CDK4 = 0 | CDK5 = 0 | CDK6 = 0 | CDK7 = 0 | CDK9 = 0 | CHEK2 = 0 | CSF1R 0 | CSK 0 | CSNK1A1 = 0 | CSNK1D 0 | DDR1 = 0 | DYRK1B 0 | DYRK2 = 0

— the supplement of paper PMC12823440, “Inhibitors supercharge kinase turnover through native proteolytic circuits” (Nature, 2025)
